Data published in article PMC9462471.
Results are given in words; binding and its absence hold for the method and conditions named. In cells and extracts the contact can be indirect. Some binding calls cover weakened binding; strength is not graded here.

The chains behind the UniProt entries cited, without tags or fusion partners. Residues count along the entry.
UniProt P35222: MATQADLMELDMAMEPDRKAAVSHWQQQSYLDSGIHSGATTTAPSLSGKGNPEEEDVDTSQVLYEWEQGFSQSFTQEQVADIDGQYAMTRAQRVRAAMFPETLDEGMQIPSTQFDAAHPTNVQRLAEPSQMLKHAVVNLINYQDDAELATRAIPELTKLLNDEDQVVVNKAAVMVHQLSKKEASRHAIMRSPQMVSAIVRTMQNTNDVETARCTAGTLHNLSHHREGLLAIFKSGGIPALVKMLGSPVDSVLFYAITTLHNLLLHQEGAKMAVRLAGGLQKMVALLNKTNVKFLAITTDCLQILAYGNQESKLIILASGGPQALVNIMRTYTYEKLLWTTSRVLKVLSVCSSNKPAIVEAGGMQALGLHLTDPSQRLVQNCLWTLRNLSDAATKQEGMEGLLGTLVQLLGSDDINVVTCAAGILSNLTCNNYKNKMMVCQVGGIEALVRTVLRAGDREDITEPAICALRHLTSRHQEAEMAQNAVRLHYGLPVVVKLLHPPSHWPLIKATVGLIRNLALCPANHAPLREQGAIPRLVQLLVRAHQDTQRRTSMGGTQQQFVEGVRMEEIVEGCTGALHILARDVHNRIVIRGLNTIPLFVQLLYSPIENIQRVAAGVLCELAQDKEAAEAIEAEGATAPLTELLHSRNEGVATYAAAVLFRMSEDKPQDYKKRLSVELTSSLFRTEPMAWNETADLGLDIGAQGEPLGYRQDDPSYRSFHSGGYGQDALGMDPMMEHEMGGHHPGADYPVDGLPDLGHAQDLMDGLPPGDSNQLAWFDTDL
UniProt Q9Y219, residues 24-1238: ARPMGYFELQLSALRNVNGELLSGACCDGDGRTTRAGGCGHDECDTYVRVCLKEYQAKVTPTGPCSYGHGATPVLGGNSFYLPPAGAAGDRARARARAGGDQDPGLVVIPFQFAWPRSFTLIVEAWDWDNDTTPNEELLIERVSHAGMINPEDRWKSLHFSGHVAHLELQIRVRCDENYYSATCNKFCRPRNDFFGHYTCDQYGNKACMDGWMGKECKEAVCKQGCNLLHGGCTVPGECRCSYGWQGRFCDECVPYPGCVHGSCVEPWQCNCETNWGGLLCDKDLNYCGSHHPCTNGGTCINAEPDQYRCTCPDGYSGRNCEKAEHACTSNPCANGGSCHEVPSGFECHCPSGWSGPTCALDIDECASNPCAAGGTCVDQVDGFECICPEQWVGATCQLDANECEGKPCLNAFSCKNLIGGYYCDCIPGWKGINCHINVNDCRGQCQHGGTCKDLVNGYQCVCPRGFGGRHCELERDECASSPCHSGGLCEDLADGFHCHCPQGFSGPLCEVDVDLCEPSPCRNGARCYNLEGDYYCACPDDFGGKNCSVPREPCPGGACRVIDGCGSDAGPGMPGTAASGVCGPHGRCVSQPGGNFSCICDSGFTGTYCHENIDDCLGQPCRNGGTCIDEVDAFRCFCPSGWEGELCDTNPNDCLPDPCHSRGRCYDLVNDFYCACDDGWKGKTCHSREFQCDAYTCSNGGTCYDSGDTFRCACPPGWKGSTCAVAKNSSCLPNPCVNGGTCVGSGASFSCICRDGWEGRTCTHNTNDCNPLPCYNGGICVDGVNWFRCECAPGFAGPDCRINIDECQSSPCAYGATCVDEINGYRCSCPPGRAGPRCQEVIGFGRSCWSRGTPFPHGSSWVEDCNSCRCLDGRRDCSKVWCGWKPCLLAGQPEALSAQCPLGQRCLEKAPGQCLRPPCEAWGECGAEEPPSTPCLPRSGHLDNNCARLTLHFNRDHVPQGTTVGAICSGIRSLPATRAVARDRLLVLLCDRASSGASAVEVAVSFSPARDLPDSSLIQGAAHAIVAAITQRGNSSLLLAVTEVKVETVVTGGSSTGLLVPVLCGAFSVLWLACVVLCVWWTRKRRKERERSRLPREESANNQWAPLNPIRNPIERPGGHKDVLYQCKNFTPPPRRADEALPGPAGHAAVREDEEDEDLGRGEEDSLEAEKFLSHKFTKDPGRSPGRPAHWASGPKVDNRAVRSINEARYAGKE

Target: β-catenin (CTNNB1) (human (endogenous in human bronchial basal cell ALI cultures)) (UniProt P35222)
Assay: co-IP; day 8 ALI culture RIPA lysate; immunoprecipitation with an N-terminus-specific CTNNB1 antibody on Pierce protein magnetic beads at 4°C, washed 3 times with RIPA buffer; precipitate blotted with a JAG2 N-terminus-specific antibody; three samples

In the case of “Jagged2 (JAG2) (from UniProt Q9Y219 24-1238) (ligand)”, the binding is reported as “binds”.
